Test results from patent US11624685B2, “Method and system for imaging and analysis of a biological specimen” (The Board of Trustees of the Leland Stanford Junior …, priority 2016, dated 2023).
At least one structure is not confirmed: it was looked up by name or label, or the drawing left a doubt.

Columns and labels:
Type in all cases: in vivo, mouse
mice = assay: 3-chamber place preference test; conditions: cocaine 15 mg/kg, after two days of exposure
mPFC of Arc-rTag mice = assay: Activity-dependent ribosome profiling of mPFC (microarray, qPCR); conditions: Input
Method: Male Arc-rTag mice were trained and labeled with 4TM with the same protocol used in ArcTRAP labeling. After labeling, the mice were returned and kept in their home cage for 14 days to allow full integration of tagged ribosomes.
Immunoaffinity purification of ribosome RNA from mPFC was carried out similarly to a protocol previously described (Sanz et al, Proc Natl Acad Sci USA, 106:13939-13944 (2009)) with minor modifications. For preparation of anti-GFP-conjugated dynabeads, for each sample 50 μl protein G dynabeads (Life Technologies) was first washed with PBST and then incubated with 2 μl anti-GFP antibody (Abcam, ab290) in a total volume of 200 μl PBST. […] RNA samples (all at 100 ng per sample) were processed at the Stanford Protein and Nucleic Acid Biotechnology Facility by one-cycle target preparation, labeling and hybridization to Mouse Gene 2.0 ST Array (Affymetrix), according to the manufacturer's protocol and analyzed by Affymetrix Transcriptiome Analysis Console.
For qPCR analysis, RNA was reverse transcribed using the ABI high capacity cDNA synthesis kit and used in quantitative PCR reactions containing SYBR-green fluorescent dye (ABI). Relative expression of mRNAs was determined after normalization with TBP levels using the ΔΔCt method. […]

mPFC cells = assay: Histological quantification of TRAP+ and NPAS4+ cells in mPFC
mPFC neurons = assay: fosCh expression in mPFC after behavioral exposure; conditions: 5 consecutive days of exposure

COC(=O)[C@H]1[C@@H](OC(=O)c2ccccc2)C[C@@H]2CC[C@H]1N2C [cocaine]
conditioning effect in place preference test (mice): place preference | Npas4 expression in whole tissue lysates, cocaine- vs shock-labeled mPFC (mPFC of Arc-rTag mice): No significant difference | number of cells in the mPFC with NPAS4 expression above threshold (mPFC cells; cocaine- vs shock-exposed and home-cage animals): did not differ | percentage of NPAS4+ cells among TRAP+ cells (mPFC cells; cocaine-labeled vs shock-labeled mPFC): significantly higher | TRAP/NPAS4 double-positive cell counts (mPFC cells; mPFC, cocaine-exposed animals): significantly higher | mean EYFP expression level compared to controls (mPFC neurons): significant increase | number of fosCh-labeled cells compared to controls (mPFC neurons): significant increase
